In patent publication US12280121B2 (Immunome, Inc., priority 2021, dated 2025):

Experiment: general procedure: solution-phase peptide synthesis; N1-((ethylimino)methylene)-N3,N3-dimethylpropane-1,3-diamine hydrochloride

(S)-10-benzyl-20-(4-(2,5-dioxo-2,5-dihydro-1H-pyrrol-1-yl)phenyl)-6,9,12,15,18-pentaoxo-3-oxa-5,8,11,14,17-pentaazaicosan-1-oic acid
conjugation yield (conjugation step): 24% yield

(S)-16-amino-10-benzyl-6,9,12,15-tetraoxo-3-oxa-5,8,11,14-tetraazahexadecan-1-oic acid
step yield (late stage modification step): 58% yield

(S)-benzyl 11-benzyl-3,6,9,12,15-pentaoxo-1-phenyl-2,18-dioxa-4,7,10,13,16-pentaazaicosan-20-oate
step yield (coupling step): 34% yield
